No constants are given. Whether binding was seen depends on the method and setting. Binding seen in cells or lysates may run through a third protein. A yes stands for co-enrichment or nearness to the bait. Other partners may have been found. Sequences can lack the tags named with a protein.
Target: T1, GST-TBC1D23 (1 to 513) (mouse) (UniProt Q8K0F1)
T1 sequence: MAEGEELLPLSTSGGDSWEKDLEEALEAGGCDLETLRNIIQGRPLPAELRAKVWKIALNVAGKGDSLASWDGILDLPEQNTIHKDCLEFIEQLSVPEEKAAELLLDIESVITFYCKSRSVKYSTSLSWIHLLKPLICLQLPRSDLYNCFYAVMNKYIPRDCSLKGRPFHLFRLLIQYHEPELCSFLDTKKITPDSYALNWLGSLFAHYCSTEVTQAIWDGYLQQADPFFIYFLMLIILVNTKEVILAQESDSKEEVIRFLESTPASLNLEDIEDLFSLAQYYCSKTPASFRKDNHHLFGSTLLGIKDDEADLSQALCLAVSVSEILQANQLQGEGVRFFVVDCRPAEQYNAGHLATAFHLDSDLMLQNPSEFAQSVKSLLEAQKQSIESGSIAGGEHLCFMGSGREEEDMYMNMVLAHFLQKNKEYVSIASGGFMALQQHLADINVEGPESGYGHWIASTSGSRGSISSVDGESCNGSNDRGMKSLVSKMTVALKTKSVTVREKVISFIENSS
Experiment: affinity purification with mass spectrometry; GST-TBC1D23 (1 to 513) or (514 to 684) on glutathione-Sepharose beads, 2 h with precleared 293T cell lysate (25 mM tris-HCl pH 7.4, 150 mM NaCl, 1 mM EDTA, 1% Triton X-100), elution with 1.5 M NaCl, MS; only the target purified

The chains behind the UniProt entries cited, without tags or fusion partners.
UniProt Q13439: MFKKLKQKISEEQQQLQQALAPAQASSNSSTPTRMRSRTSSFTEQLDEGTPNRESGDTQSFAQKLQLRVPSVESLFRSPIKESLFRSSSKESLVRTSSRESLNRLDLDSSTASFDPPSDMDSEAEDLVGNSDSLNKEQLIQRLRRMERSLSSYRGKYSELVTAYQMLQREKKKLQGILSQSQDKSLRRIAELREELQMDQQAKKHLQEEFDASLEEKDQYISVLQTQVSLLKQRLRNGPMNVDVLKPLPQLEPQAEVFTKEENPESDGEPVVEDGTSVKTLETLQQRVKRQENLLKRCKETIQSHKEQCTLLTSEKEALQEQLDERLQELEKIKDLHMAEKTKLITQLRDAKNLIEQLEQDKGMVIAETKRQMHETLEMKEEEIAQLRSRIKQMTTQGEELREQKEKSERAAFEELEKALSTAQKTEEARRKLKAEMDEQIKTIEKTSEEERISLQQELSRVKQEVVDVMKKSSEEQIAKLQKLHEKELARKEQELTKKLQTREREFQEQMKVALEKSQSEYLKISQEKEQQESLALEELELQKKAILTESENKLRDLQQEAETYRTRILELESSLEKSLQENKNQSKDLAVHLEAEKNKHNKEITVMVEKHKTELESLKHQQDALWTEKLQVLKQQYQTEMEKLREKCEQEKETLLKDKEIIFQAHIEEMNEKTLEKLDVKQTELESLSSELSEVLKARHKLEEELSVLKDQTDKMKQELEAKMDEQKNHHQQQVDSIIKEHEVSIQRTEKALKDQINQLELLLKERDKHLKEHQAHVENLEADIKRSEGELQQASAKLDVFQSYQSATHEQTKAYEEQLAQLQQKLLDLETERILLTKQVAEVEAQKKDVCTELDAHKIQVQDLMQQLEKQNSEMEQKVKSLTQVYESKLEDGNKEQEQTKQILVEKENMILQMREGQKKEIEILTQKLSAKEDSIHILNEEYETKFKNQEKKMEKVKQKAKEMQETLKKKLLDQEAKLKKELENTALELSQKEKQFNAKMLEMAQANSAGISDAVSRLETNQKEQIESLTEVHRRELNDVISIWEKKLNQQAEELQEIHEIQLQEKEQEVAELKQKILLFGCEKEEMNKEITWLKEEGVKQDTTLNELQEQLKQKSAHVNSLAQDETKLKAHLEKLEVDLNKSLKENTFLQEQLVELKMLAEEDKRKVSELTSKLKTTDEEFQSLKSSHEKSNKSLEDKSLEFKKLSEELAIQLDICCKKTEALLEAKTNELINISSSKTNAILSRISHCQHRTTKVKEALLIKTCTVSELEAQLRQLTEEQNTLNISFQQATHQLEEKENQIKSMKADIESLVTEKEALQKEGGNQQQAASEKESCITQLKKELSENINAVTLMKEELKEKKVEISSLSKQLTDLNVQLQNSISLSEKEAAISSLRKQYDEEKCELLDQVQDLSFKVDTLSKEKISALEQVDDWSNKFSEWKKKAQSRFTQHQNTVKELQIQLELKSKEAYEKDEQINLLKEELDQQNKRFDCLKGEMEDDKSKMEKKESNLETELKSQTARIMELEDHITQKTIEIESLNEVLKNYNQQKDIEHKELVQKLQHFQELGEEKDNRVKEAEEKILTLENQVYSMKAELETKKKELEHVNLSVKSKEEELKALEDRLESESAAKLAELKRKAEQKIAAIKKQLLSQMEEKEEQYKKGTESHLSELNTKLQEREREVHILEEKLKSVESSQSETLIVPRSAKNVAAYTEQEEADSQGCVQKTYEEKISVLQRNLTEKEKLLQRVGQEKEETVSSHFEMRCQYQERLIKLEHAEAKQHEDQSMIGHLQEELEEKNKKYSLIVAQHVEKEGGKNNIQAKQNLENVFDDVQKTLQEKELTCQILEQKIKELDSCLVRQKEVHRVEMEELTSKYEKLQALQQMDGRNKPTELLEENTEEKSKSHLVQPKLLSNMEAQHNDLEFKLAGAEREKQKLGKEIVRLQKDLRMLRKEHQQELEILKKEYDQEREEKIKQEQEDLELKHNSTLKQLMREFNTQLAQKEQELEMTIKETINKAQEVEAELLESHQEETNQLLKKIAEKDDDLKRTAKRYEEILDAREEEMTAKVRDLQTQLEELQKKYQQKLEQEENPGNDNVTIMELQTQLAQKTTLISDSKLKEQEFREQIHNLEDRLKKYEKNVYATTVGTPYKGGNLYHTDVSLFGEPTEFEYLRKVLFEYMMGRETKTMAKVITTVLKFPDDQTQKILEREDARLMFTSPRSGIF

golgin-245 (endogenous, 293T cell lysate) (from UniProt Q13439 1-2230)
binding: binds
